log2 fold change data for 39 targets are collected here from the supplement of paper PMC10849652.

Amino acid sequences for entries named in this document (tags omitted). A change or cut given only in a name is not applied to a line headed by its entry.
UniProt Q9NR56: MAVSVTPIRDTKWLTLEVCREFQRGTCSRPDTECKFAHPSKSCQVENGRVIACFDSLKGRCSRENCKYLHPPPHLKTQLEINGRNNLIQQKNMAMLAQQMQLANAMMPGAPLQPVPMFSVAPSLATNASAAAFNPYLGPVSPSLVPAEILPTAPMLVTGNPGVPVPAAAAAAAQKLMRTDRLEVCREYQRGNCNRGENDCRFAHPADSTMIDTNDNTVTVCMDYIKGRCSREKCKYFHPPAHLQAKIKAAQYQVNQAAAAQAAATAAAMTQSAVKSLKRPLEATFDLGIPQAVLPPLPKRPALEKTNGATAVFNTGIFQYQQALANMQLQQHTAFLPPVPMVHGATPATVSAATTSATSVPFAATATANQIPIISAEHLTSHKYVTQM
UniProt Q9NU22: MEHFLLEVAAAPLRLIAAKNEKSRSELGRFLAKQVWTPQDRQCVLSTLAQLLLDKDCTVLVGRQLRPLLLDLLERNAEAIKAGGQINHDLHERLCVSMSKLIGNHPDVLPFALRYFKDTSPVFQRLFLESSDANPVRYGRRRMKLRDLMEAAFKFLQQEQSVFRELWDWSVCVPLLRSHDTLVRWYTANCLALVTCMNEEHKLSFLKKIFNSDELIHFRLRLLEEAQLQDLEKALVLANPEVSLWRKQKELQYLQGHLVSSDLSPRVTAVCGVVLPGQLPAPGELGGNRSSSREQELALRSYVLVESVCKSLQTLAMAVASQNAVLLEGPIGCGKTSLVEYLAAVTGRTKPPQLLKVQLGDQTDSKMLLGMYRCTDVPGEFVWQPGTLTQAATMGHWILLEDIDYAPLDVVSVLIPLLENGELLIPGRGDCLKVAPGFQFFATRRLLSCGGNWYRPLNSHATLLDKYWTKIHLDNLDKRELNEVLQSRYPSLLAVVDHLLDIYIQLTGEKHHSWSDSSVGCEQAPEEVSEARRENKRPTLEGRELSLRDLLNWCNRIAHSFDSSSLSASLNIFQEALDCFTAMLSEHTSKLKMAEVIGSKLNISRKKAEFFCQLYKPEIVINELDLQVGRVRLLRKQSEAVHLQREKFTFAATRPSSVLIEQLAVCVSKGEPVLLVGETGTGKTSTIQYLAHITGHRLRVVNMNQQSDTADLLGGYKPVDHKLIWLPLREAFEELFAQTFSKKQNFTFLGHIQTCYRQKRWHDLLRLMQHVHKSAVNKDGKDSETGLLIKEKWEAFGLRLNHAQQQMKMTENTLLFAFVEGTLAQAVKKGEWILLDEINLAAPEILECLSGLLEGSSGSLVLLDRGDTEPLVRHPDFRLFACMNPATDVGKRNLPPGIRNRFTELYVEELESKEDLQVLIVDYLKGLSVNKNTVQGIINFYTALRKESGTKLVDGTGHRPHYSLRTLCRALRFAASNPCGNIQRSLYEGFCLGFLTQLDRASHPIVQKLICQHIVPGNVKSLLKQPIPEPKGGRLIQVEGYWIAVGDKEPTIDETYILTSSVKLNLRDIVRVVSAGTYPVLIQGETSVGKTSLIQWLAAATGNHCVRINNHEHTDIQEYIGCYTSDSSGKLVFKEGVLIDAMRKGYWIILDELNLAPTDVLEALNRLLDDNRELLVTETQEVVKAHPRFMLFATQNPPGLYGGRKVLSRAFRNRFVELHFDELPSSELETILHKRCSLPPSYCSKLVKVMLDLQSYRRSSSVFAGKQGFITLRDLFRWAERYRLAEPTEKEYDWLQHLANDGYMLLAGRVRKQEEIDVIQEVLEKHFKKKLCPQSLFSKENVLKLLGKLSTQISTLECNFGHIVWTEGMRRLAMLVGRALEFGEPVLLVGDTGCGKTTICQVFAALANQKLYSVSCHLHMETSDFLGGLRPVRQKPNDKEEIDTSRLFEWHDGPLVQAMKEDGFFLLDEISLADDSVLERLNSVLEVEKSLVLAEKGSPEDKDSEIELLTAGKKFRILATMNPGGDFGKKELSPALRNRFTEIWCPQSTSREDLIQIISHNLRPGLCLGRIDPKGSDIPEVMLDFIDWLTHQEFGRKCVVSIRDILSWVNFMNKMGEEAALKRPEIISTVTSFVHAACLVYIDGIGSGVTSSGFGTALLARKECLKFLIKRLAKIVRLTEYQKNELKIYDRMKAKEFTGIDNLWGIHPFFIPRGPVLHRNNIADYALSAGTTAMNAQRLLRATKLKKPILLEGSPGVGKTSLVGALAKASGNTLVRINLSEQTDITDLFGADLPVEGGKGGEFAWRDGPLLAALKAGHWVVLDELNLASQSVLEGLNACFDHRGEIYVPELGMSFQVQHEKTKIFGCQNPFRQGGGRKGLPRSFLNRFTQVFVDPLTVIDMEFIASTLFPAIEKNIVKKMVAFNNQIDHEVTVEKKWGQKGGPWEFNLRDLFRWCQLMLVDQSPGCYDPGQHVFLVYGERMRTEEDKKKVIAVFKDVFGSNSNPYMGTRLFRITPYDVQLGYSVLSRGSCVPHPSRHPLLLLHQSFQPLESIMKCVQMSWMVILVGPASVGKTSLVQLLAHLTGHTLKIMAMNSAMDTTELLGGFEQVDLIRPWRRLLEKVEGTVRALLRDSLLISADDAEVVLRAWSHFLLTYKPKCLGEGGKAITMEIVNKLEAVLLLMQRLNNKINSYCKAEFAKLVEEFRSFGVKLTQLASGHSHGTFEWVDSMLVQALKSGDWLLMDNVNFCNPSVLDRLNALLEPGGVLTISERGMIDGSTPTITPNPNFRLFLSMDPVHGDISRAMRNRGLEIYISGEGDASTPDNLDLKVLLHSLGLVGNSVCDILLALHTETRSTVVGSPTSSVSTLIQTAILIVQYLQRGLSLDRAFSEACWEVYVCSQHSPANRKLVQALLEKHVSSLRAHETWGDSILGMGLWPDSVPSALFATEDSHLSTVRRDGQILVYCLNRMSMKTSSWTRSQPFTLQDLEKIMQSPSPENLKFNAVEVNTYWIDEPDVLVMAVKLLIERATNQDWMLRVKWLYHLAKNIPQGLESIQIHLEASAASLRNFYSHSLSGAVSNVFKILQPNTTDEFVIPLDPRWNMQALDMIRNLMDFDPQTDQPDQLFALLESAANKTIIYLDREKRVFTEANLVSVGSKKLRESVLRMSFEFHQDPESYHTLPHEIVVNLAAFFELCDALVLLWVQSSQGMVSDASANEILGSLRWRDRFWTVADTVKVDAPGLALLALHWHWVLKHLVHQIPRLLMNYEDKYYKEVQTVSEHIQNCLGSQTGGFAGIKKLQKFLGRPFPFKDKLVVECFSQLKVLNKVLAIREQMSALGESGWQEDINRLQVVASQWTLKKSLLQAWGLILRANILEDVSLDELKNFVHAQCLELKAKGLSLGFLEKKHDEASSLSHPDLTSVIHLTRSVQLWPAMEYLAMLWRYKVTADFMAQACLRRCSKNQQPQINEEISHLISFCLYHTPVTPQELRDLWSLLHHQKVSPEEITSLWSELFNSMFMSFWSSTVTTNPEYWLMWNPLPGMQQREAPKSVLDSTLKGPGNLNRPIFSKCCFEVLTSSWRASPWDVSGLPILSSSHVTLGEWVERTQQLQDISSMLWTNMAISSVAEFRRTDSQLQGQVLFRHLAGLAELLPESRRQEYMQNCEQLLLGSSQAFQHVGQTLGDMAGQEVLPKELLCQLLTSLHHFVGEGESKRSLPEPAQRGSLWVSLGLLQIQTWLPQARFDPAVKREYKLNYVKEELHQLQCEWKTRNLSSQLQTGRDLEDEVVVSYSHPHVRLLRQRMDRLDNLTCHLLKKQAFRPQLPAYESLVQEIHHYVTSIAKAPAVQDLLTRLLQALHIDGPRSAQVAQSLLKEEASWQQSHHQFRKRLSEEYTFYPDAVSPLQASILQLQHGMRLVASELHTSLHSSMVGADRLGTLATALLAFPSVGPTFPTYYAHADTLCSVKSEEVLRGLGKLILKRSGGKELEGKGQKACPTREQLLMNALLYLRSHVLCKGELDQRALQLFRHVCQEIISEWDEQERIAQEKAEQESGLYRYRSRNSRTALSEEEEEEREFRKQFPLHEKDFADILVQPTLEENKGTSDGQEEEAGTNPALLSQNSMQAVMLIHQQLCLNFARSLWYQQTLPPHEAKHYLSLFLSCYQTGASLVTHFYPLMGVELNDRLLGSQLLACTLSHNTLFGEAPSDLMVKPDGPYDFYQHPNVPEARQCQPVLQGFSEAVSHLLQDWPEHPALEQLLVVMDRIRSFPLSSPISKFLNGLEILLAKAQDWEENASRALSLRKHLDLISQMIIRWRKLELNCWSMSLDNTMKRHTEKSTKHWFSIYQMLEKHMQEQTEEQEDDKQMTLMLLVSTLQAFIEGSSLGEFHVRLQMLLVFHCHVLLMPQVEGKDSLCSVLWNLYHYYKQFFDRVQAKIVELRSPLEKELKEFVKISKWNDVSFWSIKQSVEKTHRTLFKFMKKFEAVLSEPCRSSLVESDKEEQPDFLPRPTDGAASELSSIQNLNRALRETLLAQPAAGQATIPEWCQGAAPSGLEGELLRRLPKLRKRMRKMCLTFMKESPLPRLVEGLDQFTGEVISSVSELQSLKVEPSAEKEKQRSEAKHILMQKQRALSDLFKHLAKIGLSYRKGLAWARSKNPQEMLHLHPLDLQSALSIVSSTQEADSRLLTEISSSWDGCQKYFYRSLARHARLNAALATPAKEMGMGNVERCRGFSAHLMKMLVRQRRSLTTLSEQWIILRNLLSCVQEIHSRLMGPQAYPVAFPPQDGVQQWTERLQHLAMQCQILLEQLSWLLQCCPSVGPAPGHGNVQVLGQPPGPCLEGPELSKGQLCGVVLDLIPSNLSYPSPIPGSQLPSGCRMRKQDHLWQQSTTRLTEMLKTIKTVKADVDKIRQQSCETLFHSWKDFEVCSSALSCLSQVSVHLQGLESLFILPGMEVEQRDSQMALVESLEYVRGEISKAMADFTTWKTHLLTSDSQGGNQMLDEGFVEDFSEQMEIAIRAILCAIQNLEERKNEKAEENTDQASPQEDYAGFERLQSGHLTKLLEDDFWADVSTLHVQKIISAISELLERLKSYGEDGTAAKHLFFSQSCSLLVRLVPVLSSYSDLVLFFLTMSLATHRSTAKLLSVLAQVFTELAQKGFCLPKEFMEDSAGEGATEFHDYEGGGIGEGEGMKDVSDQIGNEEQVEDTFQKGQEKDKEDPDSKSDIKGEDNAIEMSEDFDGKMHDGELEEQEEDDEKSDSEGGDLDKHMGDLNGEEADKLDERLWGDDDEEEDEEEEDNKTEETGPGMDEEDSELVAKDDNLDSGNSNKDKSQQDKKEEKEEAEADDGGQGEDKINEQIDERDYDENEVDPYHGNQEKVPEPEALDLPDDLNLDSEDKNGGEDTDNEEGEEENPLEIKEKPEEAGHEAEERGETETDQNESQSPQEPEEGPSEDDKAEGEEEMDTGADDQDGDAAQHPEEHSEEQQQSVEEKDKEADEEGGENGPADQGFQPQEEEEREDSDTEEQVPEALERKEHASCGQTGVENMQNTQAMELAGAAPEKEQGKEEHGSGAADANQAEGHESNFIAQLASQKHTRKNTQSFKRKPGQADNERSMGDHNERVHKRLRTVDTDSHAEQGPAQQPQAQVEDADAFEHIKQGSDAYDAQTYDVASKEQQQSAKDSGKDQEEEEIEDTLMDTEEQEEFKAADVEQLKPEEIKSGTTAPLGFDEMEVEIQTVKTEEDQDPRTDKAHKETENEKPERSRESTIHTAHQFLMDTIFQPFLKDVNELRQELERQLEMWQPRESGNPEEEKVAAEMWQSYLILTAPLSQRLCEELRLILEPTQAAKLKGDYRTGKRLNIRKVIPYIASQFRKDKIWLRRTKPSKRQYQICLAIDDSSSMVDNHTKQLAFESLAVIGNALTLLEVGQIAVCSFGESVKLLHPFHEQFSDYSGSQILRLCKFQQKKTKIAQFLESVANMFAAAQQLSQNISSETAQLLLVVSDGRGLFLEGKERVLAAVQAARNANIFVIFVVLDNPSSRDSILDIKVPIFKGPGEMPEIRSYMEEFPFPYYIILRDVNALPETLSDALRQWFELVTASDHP
UniProt Q7Z434: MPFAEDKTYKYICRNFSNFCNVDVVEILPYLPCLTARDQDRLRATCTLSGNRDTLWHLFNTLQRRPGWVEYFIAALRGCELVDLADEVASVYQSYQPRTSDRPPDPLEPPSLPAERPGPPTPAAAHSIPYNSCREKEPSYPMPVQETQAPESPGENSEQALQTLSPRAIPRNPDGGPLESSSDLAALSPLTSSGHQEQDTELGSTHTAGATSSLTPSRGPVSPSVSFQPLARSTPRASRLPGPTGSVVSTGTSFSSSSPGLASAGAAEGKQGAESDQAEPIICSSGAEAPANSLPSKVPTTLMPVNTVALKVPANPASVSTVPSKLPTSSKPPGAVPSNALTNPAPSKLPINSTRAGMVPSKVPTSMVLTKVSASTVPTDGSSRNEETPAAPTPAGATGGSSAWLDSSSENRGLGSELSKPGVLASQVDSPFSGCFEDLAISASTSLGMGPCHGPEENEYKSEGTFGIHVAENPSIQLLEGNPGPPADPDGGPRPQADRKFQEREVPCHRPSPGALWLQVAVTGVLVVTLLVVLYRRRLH

Some of the results follow.

Compound in this test: C1=CC=C2C(=C1)C3=NNC4=CC=CC(=C43)C2=O
Description: log2 fold change, soluble protein after heating vs DMSO (PISA); higher = thermal stabilisation; K562 cells, 10 uM, 30 min; active = over 0.2 and 3.5 SD of the protein, either way, in both replicates (recomputed). The essentials:
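Quantification of soluble protein used TMTpro 16plex LC-MS/MS, with channel sums equalised. Samples were the supernatant after 21,000xg for 90 min of pooled aliquots from K562 cells (2×10^6 cells/mL) treated with 10 μM compound for 30 min, heated for 3 min over 48°C-58°C, and extracted in PBS with 0.5% NP-40 at 4°C. Values, from duplicates, describe thermal stability against control samples on a log2 fold-change scale.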
Consider MGAT4B isoform 3 (UniProt Q9UQ53), for which the log2 fold change is inactive: -0.039.

As for MBNL1 (UniProt Q9NR56), the log2 fold change was inactive: -0.057.

As for MEF2D (UniProt Q14814), the log2 fold change is inactive: -0.061.

As to MFSD10 (UniProt Q14728), the log2 fold change is inactive: -0.018.

MCAM (UniProt P43121): the log2 fold change is inactive: -0.042.

For METTL1 (UniProt Q9UBP6), the log2 fold change is inactive: 0.025.

MECP2 isoform 2 (UniProt P51608): the log2 fold change was inactive: -0.051.

Turning to MCM2 (UniProt P49736), the log2 fold change is inactive: 0.026.

Consider MCM3 isoform 2 (UniProt P25205), for which the log2 fold change is inactive: 0.016.

For the target METTL21A (UniProt Q8WXB1), the log2 fold change was inactive: 0.061.

Regarding MDN1 (UniProt Q9NU22), the log2 fold change is inactive: -0.022.

On to MGAT1 (UniProt P26572), for which the log2 fold change was inactive: 0.007.

Turning to METAP1D (UniProt Q6UB28), the log2 fold change is inactive: -0.002.

Consider MED20 (UniProt Q9H944), for which the log2 fold change was inactive: 0.007.

As for METTL14 (UniProt Q9HCE5), the log2 fold change was inactive: 0.037.

Regarding MEAK7 (UniProt Q6P9B6), the log2 fold change is inactive: 0.092.

For MCRIP1 (UniProt I3L4Q0), the log2 fold change is inactive: -0.057.

Turning to MCM5 (UniProt P33992), the log2 fold change was inactive: 0.011.

For MCUB (UniProt Q9NWR8), the log2 fold change is inactive: 0.018.

In the case of MED22 (UniProt Q15528), the log2 fold change was inactive: -0.071.

Regarding ME2 (UniProt P23368), the log2 fold change is inactive: -0.061.

Turning to MBOAT1 (UniProt Q6ZNC8), the log2 fold change is inactive: -0.067.

In the case of MDC1 (UniProt Q14676), the log2 fold change is inactive: -0.094.

For MCMBP (UniProt Q9BTE3), the log2 fold change was inactive: 0.115.

Regarding MATR3 (UniProt P43243), the log2 fold change was inactive: 0.11.

Turning to MFN1 (UniProt Q8IWA4), the log2 fold change is inactive: -0.015.

MAST4 (UniProt O15021): the log2 fold change is inactive: -0.02.

As to MED18 (UniProt Q9BUE0), the log2 fold change was inactive: -0.004.

As for MAT2A (UniProt P31153), the log2 fold change is inactive: -0.021.

As to MAVS (UniProt Q7Z434), the log2 fold change was inactive: 0.002.

For the target MEMO1 (UniProt Q9Y316), the log2 fold change was inactive: 0.035.

On to MGST3 (UniProt O14880), for which the log2 fold change was inactive: -0.023.

For the target MED15 (UniProt Q96RN5), the log2 fold change was inactive: -0.015.

As for MCFD2 (UniProt Q8NI22), the log2 fold change is inactive: 0.091.

For the target MARS2 (UniProt Q96GW9), the log2 fold change was inactive: -0.027.

Regarding MED14 (UniProt O60244), the log2 fold change was inactive: 0.023.

MFGE8 (UniProt Q08431): the log2 fold change was inactive: 0.095.

Consider MCTS1 isoform 3 (UniProt Q9ULC4), for which the log2 fold change was inactive: 0.

In the case of MCM6 (UniProt Q14566), the log2 fold change was inactive: 0.007.
